Laboratory results as given in patent US10344069 (dated 2019).

Assay: general procedure: Fmoc solid-phase peptide synthesis; 2-chlorotrityl chloride (CTC) resin; DIC/HOBT
Conditions: for crude purity (method not given): whole synthesis; for final purity (method not given): purification step

Substance	crude purity (method not given) [%]	final purity (method not given) (run 1) [%]	final purity (method not given) (run 2) [%]	crude purity (method not given) (run 1) [%]	crude purity (method not given) (run 2) [%]
Boc-His (Trt)-Ala-Glu (Otbu)-Gly	87.5				
Fmoc-Ser (tbu)-Tyr (tbu)-Leu-Glu (Otbu)-Gly	95.2				
Liraglutide		99.4	>99	48	50.8
